These are yes or no findings as the source states them, for the method shown. Binding seen in cells or lysates may run through a third protein. Some entries that bind do so weakly or less than the wild type.

The chains behind the UniProt entries cited, without tags or fusion partners.
UniProt Q08857: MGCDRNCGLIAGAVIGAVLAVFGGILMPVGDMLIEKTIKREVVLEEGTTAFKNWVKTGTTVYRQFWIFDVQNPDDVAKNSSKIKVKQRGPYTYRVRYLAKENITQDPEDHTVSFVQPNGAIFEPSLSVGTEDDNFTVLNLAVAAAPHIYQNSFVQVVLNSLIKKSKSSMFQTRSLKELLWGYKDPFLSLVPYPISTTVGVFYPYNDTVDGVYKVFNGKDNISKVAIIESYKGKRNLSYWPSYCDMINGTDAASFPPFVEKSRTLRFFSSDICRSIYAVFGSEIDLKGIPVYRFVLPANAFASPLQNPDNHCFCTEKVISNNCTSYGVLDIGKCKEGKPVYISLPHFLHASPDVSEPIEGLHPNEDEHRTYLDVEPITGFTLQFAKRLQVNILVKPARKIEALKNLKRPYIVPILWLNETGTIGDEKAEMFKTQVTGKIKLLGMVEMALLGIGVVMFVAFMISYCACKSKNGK
UniProt Q9JMA1: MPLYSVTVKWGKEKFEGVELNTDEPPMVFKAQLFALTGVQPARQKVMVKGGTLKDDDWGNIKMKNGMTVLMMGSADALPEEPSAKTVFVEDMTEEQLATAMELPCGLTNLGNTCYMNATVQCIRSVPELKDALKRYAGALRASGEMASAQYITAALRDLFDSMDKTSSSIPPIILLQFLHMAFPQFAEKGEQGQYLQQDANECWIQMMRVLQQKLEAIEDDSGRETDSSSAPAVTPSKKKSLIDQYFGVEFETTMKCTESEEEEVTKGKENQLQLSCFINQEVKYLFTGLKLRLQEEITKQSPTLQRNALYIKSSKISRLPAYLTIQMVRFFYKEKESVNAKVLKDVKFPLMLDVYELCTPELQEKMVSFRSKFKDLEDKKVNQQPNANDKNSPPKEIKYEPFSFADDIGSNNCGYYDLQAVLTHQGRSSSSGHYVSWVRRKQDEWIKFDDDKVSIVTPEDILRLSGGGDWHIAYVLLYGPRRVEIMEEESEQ

From paper PMC7131911 come the findings set out here.

The target of test [1] is CD36 (mouse (endogenous in RAW264.7)) (UniProt Q08857). Kind of test: co-IP; RAW264.7 cell lysates; USP14 or CD36 antibody coupled to Dynabeads, lysate rotated 1-2 h, washed with PBS-T three times, immunoblotted for USP14 and CD36. A general note: Immunoblotting shows a protein as a band on a membrane.
Test [2] has as its target USP14 (mouse (endogenous in RAW264.7)) (UniProt Q9JMA1). The description is as above.

On to “USP14 (from UniProt Q9JMA1 1-493) (enzyme)”, for which the binding result in test [1] is “binds”.

In the case of “CD36 (from UniProt Q08857 1-472) (receptor)”, the binding entry in test [2] is “binds”.
